Here are results for 16 molecules from patent US20250388687A1.

Chains of the proteins cited; added tags and fusions are not shown. Residues count along the entry.
UniProt P32927, residues 17-443: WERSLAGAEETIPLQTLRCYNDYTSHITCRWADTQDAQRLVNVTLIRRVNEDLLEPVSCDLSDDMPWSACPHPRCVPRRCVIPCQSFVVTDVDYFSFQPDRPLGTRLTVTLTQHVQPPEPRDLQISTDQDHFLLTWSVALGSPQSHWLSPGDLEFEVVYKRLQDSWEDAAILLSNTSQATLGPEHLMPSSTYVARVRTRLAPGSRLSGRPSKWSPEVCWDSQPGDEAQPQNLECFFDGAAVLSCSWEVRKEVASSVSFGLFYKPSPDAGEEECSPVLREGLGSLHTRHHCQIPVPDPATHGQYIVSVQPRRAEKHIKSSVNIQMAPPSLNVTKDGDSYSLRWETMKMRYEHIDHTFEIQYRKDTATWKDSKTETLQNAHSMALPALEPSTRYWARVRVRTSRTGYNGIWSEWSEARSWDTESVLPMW

B1: anti-CD131 antibody clonotype 182 (Table 6) (antibody, V domains shown)
VH: EVQLVESGGGLVQPGGSRRLSCAASGFTFSRYDMHWVRQGTGKGLEWVSGINTAGDTYYSGSVKGRFTISRENAKNSLHLQMNSLRAGDTAVYYCARGWNYGSGSCFDNWGQGTLVTVSS
VL: SSELTQDPAVSVALGQTVRITCQGDNLRNYSVSWCQQRPGQAPTLVIFGKNNRPSGIPDRFSGSNSGNTASLTITGAQAEDEADYYCNSRDISGKHWVFGGGTKLTVL
B2: anti-CD131 antibody clonotype 174 (Table 6) (antibody, V domains shown)
VH: EVQLVESGGGLVKPGGSLRLSCAASGFTFSSYSMNWVRQAPGKGLEWVSSISSSSSYIYYADSVKGRFTISRDNAKNSLYLQMNSLRAEDTAVYYCARDGSSGFLFDYWGQGTLVTVSS
VL: QTVVTQEPSLTVSPGGTVTLTCASSTGAVTSGYYPNWFQQKPGQAPRALIYSTSNKHSWTPARFSGSLLGGKAALTLSGVQPEDEAEYYCLLYYGGAWVFGGGTKLTVL
B3: anti-CD131 antibody clonotype 140 (Table 6) (antibody, V domains shown)
VH: QVQLVESGGGVVQPGRSLRLSCAASGFPFSNSGMHWVRQAPGKGLEWVTIISYDGNSKYYADSVKGRFTISRDNSKNTLYLQMNSLRTEDTAVYYCARGELGDFDYWGRGTLVTVSS
VL: SSELTQDPAVSVALGQTVRITCQGDSLRSYYASWYQQKPGQAPVLVIYGKNNRPSGIPDRFSGSSSGNTASLTITGAQAEDEADYYCNSRDSSGNHLVFGGGTKLTVL
B4: anti-CD131 antibody clonotype 158 (Table 6) (antibody, V domains shown)
VH: EVQLVESGGGVVRPGGSLRLSCAASGFTFDDYGMSWVRQAPGKGLEWVSGINWNGGSTGYADSVKGRFTISRDNAKNSLYLQMNSLRAEDTALYYCAREGGGWVFDYWGQGTLVTVSS
VL: B3 VL with L97W
B5: anti-CD131 antibody clonotype 171 (Table 6) (antibody, V domains shown)
VH: QVQLVQSGAEVKKPGASVKVSCKVSGYTLTELSMHWVRQAPGKGLEWMGGFDPEDGETIYAQKFQGRVTMTEDTSTDTAYMDLSSLRSEDTAVYYCATANWNDEAFDIWGQGTMVTVSS
VL: B3 VL
B6: anti-CD131 antibody clonotype 179 (Table 6) (antibody, V domains shown)
VH: EVQLVESGGGLVQPGGSLRLSCAASGFTFSSYWMSWVRQAPGKGLEWVANIKQDGSEKYYVDSVKGRFTISRDNAKNSLYLQMNSLRAEDTAVYYCARDGGYNWNFFDYWGQGTLVTVSS
VL: B3 VL with L97V
B7: anti-CD131 antibody clonotype 180 (Table 6) (antibody, V domains shown)
VH: QITLKESGPMLVKPTQTLTLTCTFSGFSLSTSGVGVGWIRQPPGKALEWLALIYWNDDKRYSPSLKSRLTITRDTSKNQVVLTMTNMDPVDTATYYCTHRDAAMVYFDYWGQGTLVTVSS
VL: B3 VL with L97W
B8: anti-CD131 antibody clonotype 178 (Table 6) (antibody, V domains shown)
VH: QVQLQQWGAGLLKPSETLSLTCAVFGGSFSGYYWSWIRQPPGKGLEWIGEINHSGSTNYNPSLKSRVTISVDTSKNQFSLKLTSVTAADTTVYYCARGRLYSGSFSFDYWGQGTLVTVSS
VL: B3 VL with S29N, T69I, N88K, S92R, L97W, L105V
B9: anti-CD131 antibody clonotype 128 (Table 6) (antibody, V domains shown)
VH: EVQLVESGGGLIQPGGSLRLSCAASGFTVSSNYMSWVRQAPGKGLEWVSVIYSGGSTYYADSVKGRFTISRDNSKNTLYLQMNSLRAEDTAVYYCARSFDAFDIWGQGTMVTVSS
VL: QSALTQPASVSGSPGQSITISCTGTSSDVGGYNYVSWYQQHPGKAPKLMIYDVSKRPSGVSNRFSGSKSGNTASLTISGLQAEDEADYYCCSYAGSSTFVVFGGGTKLTVL
B10: anti-CD131 antibody clonotype 132 (Table 6) (antibody, V domains shown)
VH: EVQLVESGGGLVQPGGSLRLSCAASGFTFSSYDMHWVRQATGKGLEWVSAIGTAGDTYYPGSVKGRFTISRENAKNSLYLQMNSLRAGDTAVYYCARWGTGGFDYWGQGTLVTVSS
VL: SYELTQPPSVSVSPGQTARITCSADALPKQYAYWYQQKPGQAPVLVIYKDSERPSGIPERFSGSSSGTTVTLTISGVQAEDEADYYCQSADSSGTWVFGGGTKLTVL
B11: anti-CD131 antibody clonotype 126 (Table 6) (antibody, V domains shown)
VH: QVQLVQSGAEVKKPGASVKVSCKTSGYTFTSFGISWVRQAPGQGLEWMGWISAYNDNINYAQKLQDRVTMTTDTSTSTACMELRSLRSDDTAVYFCARGASFDFWGQGTLVTVSS
VL: QSALTQPASVSGSPGQSITISCTGTSSDVGGYNYVSWYQQHPGKAPKLMIYEVSDRPSGVSNRFSGSKSGNTASLTISGLQAEDEADYYCSSYTRSSTCVFGGGTKLTVL
B12: anti-CD131 antibody clonotype 127 (Table 6) (antibody, V domains shown)
VH: EVQLVESGGGLVQPGGSLKLSCAASGFTFSGSAMHWVRQASGKGLEWVGRIRSKANSYATAYAASVKGRFTISRDDSKNTAYLQMNSLKTEDTAVYYCTGPFDYWGQGTLVTVSS
VL: B11 VL with D55N, R95S, C99W
B13: anti-CD131 antibody clonotype 161 (Table 6) (antibody, V domains shown)
VH: EVQLVESGGDLVQPGRSLRLSCAASGFTFDDHAIHWVRQAPGKGLEWVSGVTWNSNIIGYADSVKGRFTISRDIAKNSLYLQMNSLRPEDTALYYCAKDNDWNGFDYWGQGTLVTVSS
VL: B11 VL with D55N, G59V, V60I, N62Y, S91N, R95T, S96N, S97T, C99R
B14: anti-CD131 antibody clonotype 162 (Table 6) (antibody, V domains shown)
VH: EVQLVESGGGLVQPGRSLRLSCAASGFTFDDYAMHWVRQAPGKGLEWVSGISWNSGSIGYADSVKGRFTISRDNAKNSLYLQMNSLRAEDTALYYCAKDNWNYAFDIWGQGTMVTVSS
VL: B11 VL with D55N, R95S, C99R
B15: anti-CD131 antibody clonotype 160 (Table 6) (antibody, V domains shown)
VH: QVQLVQSGAEVKKPGASVQVSCKASGYTFTGYYIHWVRQAPGQGLEWMGWINPNSGGTNYAQKFQGRVIMTRDTSISIAYIELSRLRSDDTAVYYCARPYNWNSFDYWGQGTLVTVSS
VL: B11 VL with P14L, Q40H, L48I, E52D, D55N, G66A, A82T, R95T, C99W, K106N
B16: anti-CD131 antibody clonotype 164 (Table 6) (antibody, V domains shown)
VH: EVQLVESGGGLVQPGGSLRLSCTASGFTFSSYWMHWVRQAPGKGLVWVSRVNSDGGNTIYADSVKGRFTISRDNAKNTLYLQMNSLRAEDTAIYYCARDLDWTLFDYWGQGTLVTVSS
VL: QAVLTQPASLSASPGASASLTCTLRSGIYVGTYRIYWYQQKPGSPPQYLLRYKSDSDKQQGSGVPSRFSGSKDVSANAGILLISGLQSEDEADYYCMTWHSSAVVFGGGTKLTVL

Residue numbers refer to the chain shown, from its start. These are yes or no findings as the source states them, for the method shown. Some binding calls cover weakened binding; strength is not graded here.

In this experiment the target is hCD131-Fc (IME021, in house) (human) (UniProt P32927). Put plainly: flow sorting of B cells of immunised ATX-GL mice stained with fluorescent hCD131-Fc, then single-cell sequencing.
Turning to B1, the binding result is given as “binds”. With B2 the entry was “binds”; with B3, “binds”; with B4, “binds”.

Take B5: the binding result was “binds”. With B6 the entry was “binds”; with B7, “binds”.

For B8, the binding entry is given as “binds”. The entry for B9 is “binds”; for B10 it is “binds”; for B11 it is “binds”. The entry for B12 is “binds”; for B13 it is “binds”. The entry for B14 is “binds”; for B15 it is “binds”. Turning to B16, the binding result is listed as “binds”.
